Assay [1] has as its target T1, nLUC-COP1 (Arabidopsis) (UniProt P43254).
T1 sequence: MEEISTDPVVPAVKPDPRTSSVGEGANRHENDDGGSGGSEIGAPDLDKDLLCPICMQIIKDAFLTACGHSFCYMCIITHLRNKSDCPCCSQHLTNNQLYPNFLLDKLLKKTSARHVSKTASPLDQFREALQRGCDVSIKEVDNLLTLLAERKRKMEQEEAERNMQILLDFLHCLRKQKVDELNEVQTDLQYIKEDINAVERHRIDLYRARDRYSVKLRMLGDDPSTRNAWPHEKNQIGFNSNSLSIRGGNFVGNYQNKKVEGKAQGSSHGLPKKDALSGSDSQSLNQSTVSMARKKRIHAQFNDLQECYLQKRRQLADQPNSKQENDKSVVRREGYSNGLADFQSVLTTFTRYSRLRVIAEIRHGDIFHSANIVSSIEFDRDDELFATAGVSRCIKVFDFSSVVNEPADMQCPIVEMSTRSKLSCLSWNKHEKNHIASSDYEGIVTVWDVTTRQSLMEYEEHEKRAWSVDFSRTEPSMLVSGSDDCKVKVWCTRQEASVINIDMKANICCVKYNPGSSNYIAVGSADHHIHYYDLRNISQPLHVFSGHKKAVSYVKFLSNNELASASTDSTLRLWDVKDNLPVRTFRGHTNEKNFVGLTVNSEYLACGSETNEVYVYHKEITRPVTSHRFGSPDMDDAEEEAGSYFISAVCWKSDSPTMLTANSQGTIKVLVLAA
The assay can be described thus: split reporter; luciferase complementation imaging (LCI) in transfected tobacco leaves; also with coexpressed YFP-NLS-SPA1 or YFP-NLS-GUS.

The target in assay [2] is T2, nLUC-SPA1 (Arabidopsis) (UniProt Q9SYX2).
T2 sequence: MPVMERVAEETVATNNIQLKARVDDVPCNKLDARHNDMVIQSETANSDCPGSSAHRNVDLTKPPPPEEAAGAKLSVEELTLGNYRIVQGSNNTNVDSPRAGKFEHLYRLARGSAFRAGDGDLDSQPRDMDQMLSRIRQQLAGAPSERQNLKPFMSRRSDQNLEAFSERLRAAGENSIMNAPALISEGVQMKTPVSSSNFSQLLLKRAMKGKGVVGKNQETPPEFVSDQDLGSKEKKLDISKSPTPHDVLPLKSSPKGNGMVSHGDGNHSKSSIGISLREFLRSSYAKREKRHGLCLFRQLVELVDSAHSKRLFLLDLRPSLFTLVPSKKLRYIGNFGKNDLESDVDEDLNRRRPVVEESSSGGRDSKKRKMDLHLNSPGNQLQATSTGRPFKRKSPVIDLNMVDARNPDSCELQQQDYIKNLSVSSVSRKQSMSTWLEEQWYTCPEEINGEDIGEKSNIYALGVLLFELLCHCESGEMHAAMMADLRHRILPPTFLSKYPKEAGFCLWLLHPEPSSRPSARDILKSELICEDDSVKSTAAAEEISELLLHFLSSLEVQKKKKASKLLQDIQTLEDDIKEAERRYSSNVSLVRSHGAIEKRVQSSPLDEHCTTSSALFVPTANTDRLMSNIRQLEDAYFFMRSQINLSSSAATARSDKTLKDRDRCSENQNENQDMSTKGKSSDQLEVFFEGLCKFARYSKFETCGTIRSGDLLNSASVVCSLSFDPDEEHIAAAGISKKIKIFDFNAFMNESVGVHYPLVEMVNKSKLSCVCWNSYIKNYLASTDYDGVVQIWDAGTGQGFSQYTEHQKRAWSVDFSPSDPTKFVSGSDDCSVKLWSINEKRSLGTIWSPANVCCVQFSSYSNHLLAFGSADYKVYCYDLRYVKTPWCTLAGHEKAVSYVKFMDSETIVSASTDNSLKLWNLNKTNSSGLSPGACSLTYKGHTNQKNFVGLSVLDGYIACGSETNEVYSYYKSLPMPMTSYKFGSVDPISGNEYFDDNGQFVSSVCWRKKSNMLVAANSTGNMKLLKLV
The description is as above.

Assay [3] has as its target T3, MBP-COP1 (Arabidopsis) (UniProt P43254).
T3 sequence: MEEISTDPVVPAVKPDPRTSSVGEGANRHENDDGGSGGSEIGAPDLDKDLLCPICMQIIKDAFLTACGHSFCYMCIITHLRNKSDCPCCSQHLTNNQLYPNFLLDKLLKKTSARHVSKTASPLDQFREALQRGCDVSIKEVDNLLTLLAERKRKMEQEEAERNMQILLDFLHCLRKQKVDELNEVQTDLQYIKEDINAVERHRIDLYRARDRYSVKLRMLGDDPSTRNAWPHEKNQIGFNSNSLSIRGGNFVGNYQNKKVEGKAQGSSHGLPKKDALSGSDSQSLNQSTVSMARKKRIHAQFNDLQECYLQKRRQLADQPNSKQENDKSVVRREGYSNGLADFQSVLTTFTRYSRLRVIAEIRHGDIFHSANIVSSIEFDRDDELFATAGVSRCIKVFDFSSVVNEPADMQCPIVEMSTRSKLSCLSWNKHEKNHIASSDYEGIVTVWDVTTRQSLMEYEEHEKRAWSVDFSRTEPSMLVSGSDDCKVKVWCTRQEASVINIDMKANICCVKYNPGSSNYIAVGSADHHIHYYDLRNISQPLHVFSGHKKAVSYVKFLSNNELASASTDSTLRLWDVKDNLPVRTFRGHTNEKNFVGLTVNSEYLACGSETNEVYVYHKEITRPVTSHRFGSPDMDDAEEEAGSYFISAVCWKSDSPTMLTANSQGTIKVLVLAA
As to the kind of experiment: pull-down; GST-TCP3, GST and MBP-COP1 purified from E. coli; coprecipitated using MBP-beads, eluates analysed with α-GST and α-MBP; both purified.

Results are given in words; binding and its absence hold for the method and conditions named. For part of these data: Binding seen in cells or lysates may run through a third protein. Some binding calls cover weakened binding; strength is not graded here. Where a sequence is shown, tags or fusion partners need not be part of it.

B1: TCP3-cLUC (protein, UniProt Q9MAH8 1-391)
chain: MAPDNDHFLDSPSPPLLEMRHHQSATENGGGCGEIVEVQGGHIVRSTGRKDRHSKVCTAKGPRDRRVRLSAPTAIQFYDVQDRLGFDRPSKAVDWLITKAKSAIDDLAQLPPWNPADTLRQHAAAAANAKPRKTKTLISPPPPQPEETEHHRIGEEEDNESSFLPASMDSDSIADTIKSFFPVASTQQSYHHQPPSRGNTQNQDLLRLSLQSFQNGPPFPNQTEPALFSGQSNNQLAFDSSTASWEQSHQSPEFGKIQRLVSWNNVGAAESAGSTGGFVFASPSSLHPVYSQSQLLSQRGPLQSINTPMIRAWFDPHHHHHHHQQSMTTDDLHHHHPYHIPPGIHQSAIPGIAFASSGEFSGFRIPARFQGEQEEHGGDNKPSSASSDSRH
Take B1: the binding result in assay [1] and in assay [2] was “binds” in each case.

B2: GST-TCP3 (protein, UniProt Q9MAH8 1-391)
chain: MAPDNDHFLDSPSPPLLEMRHHQSATENGGGCGEIVEVQGGHIVRSTGRKDRHSKVCTAKGPRDRRVRLSAPTAIQFYDVQDRLGFDRPSKAVDWLITKAKSAIDDLAQLPPWNPADTLRQHAAAAANAKPRKTKTLISPPPPQPEETEHHRIGEEEDNESSFLPASMDSDSIADTIKSFFPVASTQQSYHHQPPSRGNTQNQDLLRLSLQSFQNGPPFPNQTEPALFSGQSNNQLAFDSSTASWEQSHQSPEFGKIQRLVSWNNVGAAESAGSTGGFVFASPSSLHPVYSQSQLLSQRGPLQSINTPMIRAWFDPHHHHHHHQQSMTTDDLHHHHPYHIPPGIHQSAIPGIAFASSGEFSGFRIPARFQGEQEEHGGDNKPSSASSDSRH
Consider B2, for which the binding result in assay [3] is on record as “binds”.

Source of the values: article PMC12107181 (2025).
